# Results are given in words; binding and its absence hold for the method and conditions named. For some of these results: Binding can be weak; no strength is given. Tags and fused reporters may be left off the sequences shown.
# Tests used:
# [1] = molecular target: T1, 6×His-tagged PfSkp1 (P. falciparum) (UniProt Q8ID38); test: far-Western, overlay or dot blot; dot blot protein overlay: different amounts of HisSkp, HisSUMO/Rbx or HisSUMO spotted on nitrocellulose, blocked (3% BSA in PBS-T), overlaid with 10 μg of GST or GST-tagged protein for 12 h at 4°C, detected with anti-GST antibodies; both purified
# T1 sequence: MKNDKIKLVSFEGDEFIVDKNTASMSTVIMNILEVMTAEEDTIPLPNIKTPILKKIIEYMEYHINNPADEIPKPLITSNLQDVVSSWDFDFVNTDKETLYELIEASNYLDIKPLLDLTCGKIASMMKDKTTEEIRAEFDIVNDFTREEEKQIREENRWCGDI
# [2] = molecular target: T2, 6×His/SUMO-tagged PfRbx1 (P. falciparum) (UniProt O77367); test: as above
# T2 sequence: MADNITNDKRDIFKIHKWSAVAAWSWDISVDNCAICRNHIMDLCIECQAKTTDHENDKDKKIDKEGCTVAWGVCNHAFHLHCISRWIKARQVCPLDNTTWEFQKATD
Substance,binding [1],binding [2]
GST-tagged PfFBXO1 (P. falciparum),binds,no binding (tested: 10 μg overlaid)
GST-tagged P. falciparum calcyclin binding protein,binds,no binding (tested: 10 μg overlaid)
